Assay results reported in article PMC2908686.
Results are given in words; binding and its absence hold for the method and conditions named. In cells and extracts the contact can be indirect. For part of these data: A result given as binding can be weak or reduced; the word gives no strength. Where a sequence is shown, tags or fusion partners need not be part of it.

Assays:
Assay in all cases: co-IP; same FLAG-IPs of the TPR proteins from HEK-293 lysates; co-precipitated endogenous Hsp90 and Hsp70 by Coomassie staining (Hsp70 background on the resin subtracted), p23 by immunoblot; normalized to the precipitated TPR cofactor; experiments with different steroid receptors pooled
[1] = target: T1, hepatitis virus B X-associated protein 2 (XAP2), C-terminal FLAG fusion (UniProt O00170)
T1 sequence: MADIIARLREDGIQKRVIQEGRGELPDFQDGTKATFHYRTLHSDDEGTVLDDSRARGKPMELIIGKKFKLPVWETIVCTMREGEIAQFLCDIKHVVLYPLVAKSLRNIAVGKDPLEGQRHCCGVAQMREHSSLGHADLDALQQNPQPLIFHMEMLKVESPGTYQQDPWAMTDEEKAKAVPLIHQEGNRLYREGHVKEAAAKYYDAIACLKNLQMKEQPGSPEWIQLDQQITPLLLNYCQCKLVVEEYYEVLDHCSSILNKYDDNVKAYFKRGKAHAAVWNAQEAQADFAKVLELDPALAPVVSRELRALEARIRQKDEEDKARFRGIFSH

[2] = target: T2, FK506 binding protein 52 (FKBP52), C-terminal FLAG fusion (UniProt Q02790)
T2 sequence: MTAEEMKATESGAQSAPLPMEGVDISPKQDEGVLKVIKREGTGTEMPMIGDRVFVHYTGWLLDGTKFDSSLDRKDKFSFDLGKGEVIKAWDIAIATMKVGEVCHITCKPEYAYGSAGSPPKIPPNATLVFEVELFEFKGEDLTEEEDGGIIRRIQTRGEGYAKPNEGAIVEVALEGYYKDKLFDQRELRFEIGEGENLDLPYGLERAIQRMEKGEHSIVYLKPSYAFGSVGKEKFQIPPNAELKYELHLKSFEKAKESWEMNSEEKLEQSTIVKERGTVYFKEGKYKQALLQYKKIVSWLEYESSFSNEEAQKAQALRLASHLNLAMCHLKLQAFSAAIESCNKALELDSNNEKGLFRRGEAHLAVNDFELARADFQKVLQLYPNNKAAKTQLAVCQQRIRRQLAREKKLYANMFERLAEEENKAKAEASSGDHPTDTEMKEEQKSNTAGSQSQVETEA

[3] = target: T3, FK506 binding protein 51 (FKBP51), C-terminal FLAG fusion (UniProt Q13451)
T3 sequence: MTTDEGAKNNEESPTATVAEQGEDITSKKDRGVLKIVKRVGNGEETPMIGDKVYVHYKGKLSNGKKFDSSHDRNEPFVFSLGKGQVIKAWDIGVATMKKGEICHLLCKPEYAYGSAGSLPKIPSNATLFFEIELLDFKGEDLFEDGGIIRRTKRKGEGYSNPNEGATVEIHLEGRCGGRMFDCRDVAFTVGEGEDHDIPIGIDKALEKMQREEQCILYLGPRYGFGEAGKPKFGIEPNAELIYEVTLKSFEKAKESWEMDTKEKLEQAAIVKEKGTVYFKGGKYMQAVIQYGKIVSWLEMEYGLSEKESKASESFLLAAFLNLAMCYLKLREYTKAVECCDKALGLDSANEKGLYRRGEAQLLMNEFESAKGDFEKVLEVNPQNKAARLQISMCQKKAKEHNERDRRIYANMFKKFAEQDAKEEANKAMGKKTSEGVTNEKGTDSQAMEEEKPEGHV

Substance: Hsp70, endogenous (human (endogenous in HEK-293))
- binding [1]: no binding
- binding [2]: no binding
- binding [3]: binds weakly
